Reference: publication PMC9475462
These are yes or no findings as the source states them, for the method shown. In cells and extracts the contact can be indirect. These calls come from enrichment with a bait or labelling near it, and not all partners need be listed. Where a sequence is shown, tags or fusion partners need not be part of it.

Amino acid sequences for entries named in this document (tags omitted).
UniProt P14618: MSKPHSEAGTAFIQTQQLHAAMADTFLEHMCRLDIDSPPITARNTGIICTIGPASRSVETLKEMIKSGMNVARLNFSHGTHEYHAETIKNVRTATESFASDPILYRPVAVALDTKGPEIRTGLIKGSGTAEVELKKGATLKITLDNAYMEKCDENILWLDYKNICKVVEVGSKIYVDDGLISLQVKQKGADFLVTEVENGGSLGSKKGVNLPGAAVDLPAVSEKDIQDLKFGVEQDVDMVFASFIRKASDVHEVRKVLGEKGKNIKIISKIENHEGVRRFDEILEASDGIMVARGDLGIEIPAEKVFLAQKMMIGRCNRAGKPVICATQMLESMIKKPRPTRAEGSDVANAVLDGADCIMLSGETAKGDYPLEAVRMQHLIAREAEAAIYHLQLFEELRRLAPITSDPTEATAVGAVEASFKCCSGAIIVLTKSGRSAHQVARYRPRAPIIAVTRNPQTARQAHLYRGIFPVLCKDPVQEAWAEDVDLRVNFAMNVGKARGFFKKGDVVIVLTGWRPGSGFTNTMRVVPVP

Target: T1, FLAG-ARHGAP24 (Rho GTPase activating protein 24) (UniProt Q8N264)
T1 sequence: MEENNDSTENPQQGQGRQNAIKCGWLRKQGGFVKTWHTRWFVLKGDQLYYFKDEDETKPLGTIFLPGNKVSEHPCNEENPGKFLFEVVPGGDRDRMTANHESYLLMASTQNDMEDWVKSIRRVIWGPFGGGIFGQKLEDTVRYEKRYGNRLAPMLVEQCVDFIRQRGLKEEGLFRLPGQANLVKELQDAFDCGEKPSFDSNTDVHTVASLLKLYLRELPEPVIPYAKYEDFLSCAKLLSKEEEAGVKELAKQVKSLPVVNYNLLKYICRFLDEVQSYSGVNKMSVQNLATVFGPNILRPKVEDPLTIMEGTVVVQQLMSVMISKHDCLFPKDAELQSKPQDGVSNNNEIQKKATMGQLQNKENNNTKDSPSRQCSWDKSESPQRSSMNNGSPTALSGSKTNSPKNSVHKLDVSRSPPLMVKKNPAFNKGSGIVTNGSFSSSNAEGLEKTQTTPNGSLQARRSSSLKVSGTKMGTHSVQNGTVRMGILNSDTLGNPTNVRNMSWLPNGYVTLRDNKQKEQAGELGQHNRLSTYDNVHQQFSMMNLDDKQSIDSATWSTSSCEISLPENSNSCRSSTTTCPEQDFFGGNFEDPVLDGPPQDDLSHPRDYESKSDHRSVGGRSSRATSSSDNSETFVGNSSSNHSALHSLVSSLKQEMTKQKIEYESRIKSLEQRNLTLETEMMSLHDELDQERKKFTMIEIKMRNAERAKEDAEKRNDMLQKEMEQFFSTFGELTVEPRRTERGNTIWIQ
Assay: affinity purification with mass spectrometry; HCCLM3 cells transfected with FLAG-ARHGAP24, immunoprecipitated with anti-FLAG antibody; IgG as non-specific control; LC-MS/MS

binding: binds
Substance: pyruvate kinase M2 (PKM2), in HCCLM3 cells (from UniProt P14618 1-531)
